{"source": "PubChem BioAssay (EPA / NIEHS)", "note": "Several values for one entry are separate records, joined by “and”; a condition that tells them apart may be missing. Equal entries are not always repeated. Inconclusive results, whose numbers are uncertain, are shown with a selection of clear calls. Potencies beside an inconclusive call are fits to weak or partial responses and may not hold up. Activity calls are given as the source filed them. The calls were made as follows: active = hit-call score of the fitted dose curve at least 0.9, where 1 is the maximum; inconclusive = response in the unintended direction; inactive = score below 0.9."}
{"system": "frog Estrogen Receptor (ER), gene 398734", "test": "ATG_frER1_XSP2: Attagene TRANS-FACTORIAL Multi-Species (XSP2) HepG2 Assay for frog Estrogen Receptor (ER) (AID 2283821);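 also: hits raise reporter mRNA above DMSO baseline so potency means agonist or activator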", "method": "ATG_XSP2_multi-species_TRANS is a cell-based, multiplexed assay created by modifying the existing Attagene TRANS-FACTORIAL system to include a panel of nuclear receptors from some or all the following species: human (Homo sapiens), mouse (Mus musculus), frog (Xenopus laevis), zebrafish (Danio rerio), chicken (Gallus gallus), and turtle (Chrysemys picta). The ECOTOX-FACTORIAL format uses HepG2, a human liver cell line, with measurements taken at 24 hours after chemical dosing in a 24-well plate. Xsp2 included 3 nM 6-alpha-fluorotestosterone and 1.5 nM norgestrel to stimulate the androgen receptor.ATG_frER1_XSP2 is one of 29 assay components measured or calculated from the ATG_XSP2_multi-species_TRANS assay. It is designed to make measurements of mRNA induction, a form of inducible reporter, as detected with fluorescence intensity signals by Reverse transcription polymerase chain reaction (RT-PCR) and Capillary electrophoresis technology.The assay endpoint ATG_frER1_XSP2 was analyzed in the positive analysis fitting direction relative to DMSO as the negative control and baseline of activity. Using a type of inducible reporter, measures of mRNA for gain-of-signal activity can be used to understand the reporter gene at the transcription factor-level as they relate to the gene ER. Furthermore, this assay endpoint can be referred to as a primary readout, because this assay has produced multiple assay endpoints where this one serves a reporter gene function. To generalize the intended target to other relatable targets, this assay endpoint is annotated to the nuclear receptor intended target family, where the subfamily is steroidal.\nHuman liver HepG2 cells are transiently transfected with multiple reporter transcription units (MRTUs) in 6-well plates using FuGene 6 reagent (Roche; 3 ml FuGene/1 mg DNA). The MRTU constructs are regulated by a cis-regulating element (promoter). […] A major difference between the CIS and TRANS system is that in CIS activities of endogenous TFs are measured, whereas the TRANS assay evaluates changes in activities of exogenous, chimeric NR-Gal4 proteins. […] At the end of 24 hour incubation, total RNA was isolated using TriZol reagent (Invitrogen). The isolated RNA is then reverse-transcribed using oligo(dT) primer and Mo-MLV reverse transcriptase (Invitrogen) with DNAse I (Ambion) treatment for 30 min. The one-tenth of the produced cDNA was amplified by PCR using Taq DNA polymerase (Invitrogen) and two reporter sequence-specific primers. The PCR products were fluorescently labeled by primer extension with 6-arboxyfluorescein (6-FAM) 5'-labeled reporter sequence-specific primer (2 min at 95 C, 20 s at 68 C and 10 min at 72 C) and these products were digested with 5U of HpaI (New England Biolabs) for 2h at 37 C. The fragments were purified using Qiaquick PCR columns (Qiagen), analyzed on an ABI 3130xL genetic analyzer (Applied Biosystems) with peak positions identified by using a set of X-rhodamine (ROX)-labeled MapMarker1000 molecular weight standards (BioVentures). The raw capillary electrophoresis data was processed using Attagraph software (Attagene)."}
{"compound": "CCC[CH2][Sn]([Cl])([CH2]CCC)[CH2]CCC", "AC50": "inconclusive: 1 µM"}
{"compound": "Cc1cc(-c2ccc(N)c(C)c2)ccc1N", "AC50": "inconclusive: 100 µM"}
{"compound": "Oc1ccc(Cl)cc1Cc1ccccc1", "AC50": "inconclusive: 10 µM"}
{"compound": "C#CCOS(=O)OC1CCCCC1Oc1ccc(C(C)(C)C)cc1", "note": "(centres undefined)", "AC50": "inconclusive: 179 µM"}
{"compound": "COP(=S)(OC)SCn1nnc2ccccc2c1=O", "AC50": "active: 29.1 µM and active: 5.67 µM"}
{"compound": "CC(C)CCCCCCCOC(=O)c1ccccc1C(=O)OCCCCCCCC(C)C", "AC50": "inconclusive: 100 µM"}
{"compound": "Oc1ccc2ccc3cccc4ccc1c2c34", "AC50": "inconclusive: 33.4 µM"}
{"compound": "c1ccc2c(c1)-c1cccc3cccc-2c13", "AC50": "inconclusive: 100 µM"}
{"compound": "CC(C)(C)c1ccc(CSc2cnn(C(C)(C)C)c(=O)c2Cl)cc1", "outcome": "inactive"}
{"compound": "CC(C)(C)C(O)(CCc1ccc(Cl)cc1)Cn1cncn1", "note": "(centres undefined)", "AC50": "inconclusive: 100 µM"}
{"compound": "CO/C=C(/C(=O)OC)c1ccccc1Oc1cc(Oc2ccccc2C#N)ncn1", "AC50": "inconclusive: 0.489 µM"}
{"compound": "CC(c1ccc(O)cc1)(c1ccc(O)cc1)c1ccc(O)cc1", "AC50": "inconclusive: 0.0903 µM"}
{"compound": "CCOCN(C(=O)CCl)c1c(C)cccc1CC", "AC50": "inconclusive: 179 µM"}
{"compound": "CCCCOC(=O)c1ccccc1C(=O)OCCCC", "AC50": "active: 29 µM"}
{"compound": "CC(C)(O)C(=O)Nc1ccc([N+](=O)[O-])c(C(F)(F)F)c1", "outcome": "inactive"}
{"compound": "O=c1oc2ccccc2c(O)c1C(CC(O)c1ccc(-c2ccc(Br)cc2)cc1)c1ccccc1", "note": "(centres undefined)", "AC50": "inconclusive: 0.00869 µM"}
{"compound": "CC(=O)c1cc2c(cc1C)C(C)(C)C(C)CC2(C)C", "note": "(centres undefined)", "AC50": "inconclusive: 100 µM"}
{"compound": "CCN(CC)C(=O)C(C)Oc1cccc2ccccc12", "note": "(centres undefined)", "outcome": "inactive"}
{"compound": "Oc1c(I)cc(I)cc1I", "AC50": "inconclusive: 48.8 µM"}
